Experimental data published in patent EP0346068A2 (SMITHKLINE BECKMAN CORPORATION, priority 1988, dated 1989).

Test: general procedure: Boc solid-phase peptide synthesis; benzhydrylamine (BHA) resin; Boc-Pro-Merrifield resin; DCC/HBT; DCC/DMAP for Pmp(MeBzl)
Settings: whole synthesis, scale 0.5 mmol, one disulfide bridge, sequence written open

## Pmp(MeBzl)-D-Tyr(Et)-Phe-Val-Asn-D-Cys(MeBzl)-MeArg(Tos)-Arg(Tos)-BHA
  crude mass: 137 mg
